The text below walks through data of the supplement of paper PMC5393889.

The other results are listed elsewhere or left out.

The subject of the test is Caenorhabditis elegans N2. The test is described as follows: aldicarb interaction hit call (worm growth perturbed in combination with 10 uM aldicarb in both replicates, no effect as single agent) (binary (1 = interacts)); higher = interacts with aldicarb (growth perturbed). The conditions noted are these: first compound 1.5 µM; aldicarb concentration 10 µM; 6 days; 20 °C.
With `O=C(NCC1CC1)c1sc2cc(Cl)ccc2c1Cl` [wact-123] + CNC(=O)O/N=C/C(C)(C)SC [aldicarb], the “aldicarb interaction hit call” value is inactive: 0.

`Cc1cc(C)cc(OCCNC(=O)c2ccccc2Br)c1` [wact-473] + CNC(=O)O/N=C/C(C)(C)SC [aldicarb]: the “aldicarb interaction hit call” value is inactive: 0.

`CCCc1ccc(-c2ccc(OC(F)(F)F)cc2)nc1` [wact-432] + CNC(=O)O/N=C/C(C)(C)SC [aldicarb]: the “aldicarb interaction hit call” value is inactive: 0.

Consider `O=C(Nc1ccc(Br)cc1)c1ccc(F)cc1F` [wact-128] + CNC(=O)O/N=C/C(C)(C)SC [aldicarb], for which the “aldicarb interaction hit call” value was inactive: 0.

In the case of `CCC(=O)NC(=S)Nc1ccc(CC)cc1` [wact-479] + CNC(=O)O/N=C/C(C)(C)SC [aldicarb], the “aldicarb interaction hit call” value was inactive: 0.

In the case of `C#Cc1ccccc1COc1c(Cl)cc(/C=N/NC(=O)c2cc3ccccc3o2)cc1OC` [wact-359] + CNC(=O)O/N=C/C(C)(C)SC [aldicarb], the “aldicarb interaction hit call” value is inactive: 0.

Regarding `CN(Cc1ccn[nH]1)Cc1cn(-c2ccc(F)cc2)nc1-c1ccccc1Cl` [wact-312] + CNC(=O)O/N=C/C(C)(C)SC [aldicarb], the “aldicarb interaction hit call” value is inactive: 0.

As to `COCCN(Cc1nc(-c2ccc(-c3ccccc3)cc2)oc1C)C(C)C` [wact-235] + CNC(=O)O/N=C/C(C)(C)SC [aldicarb], the “aldicarb interaction hit call” value is inactive: 0.

`Cn1cc(CN2CCCC(C(=O)c3ccc(-c4ccccc4)cc3)C2)cn1` (stereo not given) [wact-249] + CNC(=O)O/N=C/C(C)(C)SC [aldicarb]: the “aldicarb interaction hit call” value was inactive: 0.

For the compound `CCOc1ccc(S(=O)(=O)N2CCCCCC2)cc1C` [wact-555] + CNC(=O)O/N=C/C(C)(C)SC [aldicarb], the “aldicarb interaction hit call” value was inactive: 0.

For the compound `O=C(N/N=C/c1ccncc1)c1n[nH]c2c1CCCC2` [mezole-1] + CNC(=O)O/N=C/C(C)(C)SC [aldicarb], the “aldicarb interaction hit call” value was inactive: 0.

Turning to `Cc1cc(Cl)ccc1C(=O)C1CCCN(Cc2cccn2-c2nccs2)C1` (stereo not given) [wact-254] + CNC(=O)O/N=C/C(C)(C)SC [aldicarb], the “aldicarb interaction hit call” value was inactive: 0.

As to `Cc1nc2cc(Br)c(Br)cc2n1-c1ccccc1` [wact-388] + CNC(=O)O/N=C/C(C)(C)SC [aldicarb], the “aldicarb interaction hit call” value is inactive: 0.

Consider `CCc1ccc2oc(-c3ccc(C)c(N)c3)nc2c1` [wact-57] + CNC(=O)O/N=C/C(C)(C)SC [aldicarb], for which the “aldicarb interaction hit call” value was inactive: 0.

For `CCCCSc1nnc(-c2ccc(Cl)cc2Cl)o1` [wact-39] + CNC(=O)O/N=C/C(C)(C)SC [aldicarb], the “aldicarb interaction hit call” value is inactive: 0.

On to `CN1CCN(c2ccc(NC(=O)c3ccc4c(c3)OCCO4)cc2Cl)CC1` [wact-173] + CNC(=O)O/N=C/C(C)(C)SC [aldicarb], for which the “aldicarb interaction hit call” value is inactive: 0.

For the compound `FC(F)(F)c1ccc(-c2noc(CN3CCC(OCc4ccccn4)CC3)n2)cc1` [wact-241] + CNC(=O)O/N=C/C(C)(C)SC [aldicarb], the “aldicarb interaction hit call” value was inactive: 0.

On to `C=C(C)Cn1c(N2CCN(c3cccc(Cl)c3)CC2)nc2c1c(=O)[nH]c(=O)n2C` [wact-138] + CNC(=O)O/N=C/C(C)(C)SC [aldicarb], for which the “aldicarb interaction hit call” value is inactive: 0.

`FC(F)(F)c1ccc(-c2noc(CN3CCN(C4CCCC4)CC3)n2)cc1` [wact-336] + CNC(=O)O/N=C/C(C)(C)SC [aldicarb]: the “aldicarb interaction hit call” value was inactive: 0.

Consider `O=C(Nc1ccc(Cl)cc1)c1ccc(CN2CCc3ccccc3C2)cc1` [wact-9] + CNC(=O)O/N=C/C(C)(C)SC [aldicarb], for which the “aldicarb interaction hit call” value is inactive: 0.

`O=C(Nc1ccc(F)c(F)c1)Nc1ccc(F)c(F)c1` [wact-193] + CNC(=O)O/N=C/C(C)(C)SC [aldicarb]: the “aldicarb interaction hit call” value was inactive: 0.

Turning to `O=C(Nc1ccc(Cl)c(Cl)c1)OCC(F)(F)F` [wact-398] + CNC(=O)O/N=C/C(C)(C)SC [aldicarb], the “aldicarb interaction hit call” value was inactive: 0.

On to `N/C(Cc1cccs1)=N\OC(=O)COc1ccc(Br)cc1` [wact-449] + CNC(=O)O/N=C/C(C)(C)SC [aldicarb], for which the “aldicarb interaction hit call” value is inactive: 0.

On to `O=C(c1cc2ccccc2o1)c1ccc(Br)s1` [wact-490] + CNC(=O)O/N=C/C(C)(C)SC [aldicarb], for which the “aldicarb interaction hit call” value is inactive: 0.

For the compound `COc1cc(NC(=O)c2cc3ccccc3o2)ccc1NC(=O)c1ccccc1Cl` [wact-86] + CNC(=O)O/N=C/C(C)(C)SC [aldicarb], the “aldicarb interaction hit call” value is active: 1.
